Laboratory results reported in the supplement of paper PMC6411743.
± gives the standard deviation of the averaged measurements. Only a part is listed here, and it is no random draw.

The chains behind the UniProt entries cited, without tags or fusion partners. Where a name states a change or a piece, a line headed by the entry shows the natural chain unless it says otherwise.
UniProt Q9H1I8: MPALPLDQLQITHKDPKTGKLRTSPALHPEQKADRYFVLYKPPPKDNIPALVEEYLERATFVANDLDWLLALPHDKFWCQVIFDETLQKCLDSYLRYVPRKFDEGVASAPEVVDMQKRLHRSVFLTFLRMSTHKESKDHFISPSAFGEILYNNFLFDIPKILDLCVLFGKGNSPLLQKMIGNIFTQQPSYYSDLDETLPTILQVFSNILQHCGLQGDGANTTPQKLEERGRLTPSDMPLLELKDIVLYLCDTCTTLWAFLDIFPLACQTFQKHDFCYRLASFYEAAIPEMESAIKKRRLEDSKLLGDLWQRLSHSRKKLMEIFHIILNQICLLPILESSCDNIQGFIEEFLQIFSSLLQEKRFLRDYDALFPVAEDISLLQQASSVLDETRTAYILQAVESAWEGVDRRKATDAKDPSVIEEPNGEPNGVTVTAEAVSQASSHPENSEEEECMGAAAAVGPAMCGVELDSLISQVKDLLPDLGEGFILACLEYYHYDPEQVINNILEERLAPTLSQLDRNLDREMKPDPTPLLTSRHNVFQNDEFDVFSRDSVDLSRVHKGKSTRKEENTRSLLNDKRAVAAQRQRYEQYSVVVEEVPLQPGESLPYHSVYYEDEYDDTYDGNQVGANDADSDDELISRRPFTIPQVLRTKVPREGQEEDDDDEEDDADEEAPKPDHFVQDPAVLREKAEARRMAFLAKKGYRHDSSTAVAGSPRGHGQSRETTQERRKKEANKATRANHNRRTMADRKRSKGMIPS
UniProt Q9GZM8: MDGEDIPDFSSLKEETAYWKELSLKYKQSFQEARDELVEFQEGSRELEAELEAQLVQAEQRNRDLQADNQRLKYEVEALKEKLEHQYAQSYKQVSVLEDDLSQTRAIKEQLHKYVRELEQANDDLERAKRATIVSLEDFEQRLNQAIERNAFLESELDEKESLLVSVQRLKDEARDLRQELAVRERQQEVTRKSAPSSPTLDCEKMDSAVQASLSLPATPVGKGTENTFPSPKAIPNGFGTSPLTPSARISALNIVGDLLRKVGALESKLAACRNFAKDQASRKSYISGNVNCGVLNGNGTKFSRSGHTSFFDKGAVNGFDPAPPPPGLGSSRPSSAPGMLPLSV
UniProt Q9H4E7, whole entry: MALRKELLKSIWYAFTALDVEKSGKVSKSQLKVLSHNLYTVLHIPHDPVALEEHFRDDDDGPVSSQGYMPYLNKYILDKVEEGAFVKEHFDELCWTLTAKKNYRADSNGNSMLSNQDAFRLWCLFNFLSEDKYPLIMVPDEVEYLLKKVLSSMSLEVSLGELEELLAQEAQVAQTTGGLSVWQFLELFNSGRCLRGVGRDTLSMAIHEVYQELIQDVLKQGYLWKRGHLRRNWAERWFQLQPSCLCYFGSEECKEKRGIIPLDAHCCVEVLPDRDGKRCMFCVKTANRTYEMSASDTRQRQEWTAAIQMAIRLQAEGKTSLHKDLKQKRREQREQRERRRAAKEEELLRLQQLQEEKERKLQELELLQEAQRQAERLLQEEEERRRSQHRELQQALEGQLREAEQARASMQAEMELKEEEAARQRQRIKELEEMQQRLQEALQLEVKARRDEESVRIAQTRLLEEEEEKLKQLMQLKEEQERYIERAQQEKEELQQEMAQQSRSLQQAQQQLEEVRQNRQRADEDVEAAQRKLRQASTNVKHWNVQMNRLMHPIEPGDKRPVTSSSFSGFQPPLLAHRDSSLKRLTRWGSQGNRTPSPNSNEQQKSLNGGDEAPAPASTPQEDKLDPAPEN
UniProt Q9H425: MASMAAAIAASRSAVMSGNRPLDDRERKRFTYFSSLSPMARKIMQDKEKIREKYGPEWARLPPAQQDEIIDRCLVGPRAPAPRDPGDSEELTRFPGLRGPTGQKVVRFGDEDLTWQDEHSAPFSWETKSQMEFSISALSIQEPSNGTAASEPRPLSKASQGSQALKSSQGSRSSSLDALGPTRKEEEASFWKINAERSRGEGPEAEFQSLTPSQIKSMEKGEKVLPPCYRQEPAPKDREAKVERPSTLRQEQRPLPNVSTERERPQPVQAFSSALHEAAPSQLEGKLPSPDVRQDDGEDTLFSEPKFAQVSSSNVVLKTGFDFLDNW
UniProt Q9C0B7: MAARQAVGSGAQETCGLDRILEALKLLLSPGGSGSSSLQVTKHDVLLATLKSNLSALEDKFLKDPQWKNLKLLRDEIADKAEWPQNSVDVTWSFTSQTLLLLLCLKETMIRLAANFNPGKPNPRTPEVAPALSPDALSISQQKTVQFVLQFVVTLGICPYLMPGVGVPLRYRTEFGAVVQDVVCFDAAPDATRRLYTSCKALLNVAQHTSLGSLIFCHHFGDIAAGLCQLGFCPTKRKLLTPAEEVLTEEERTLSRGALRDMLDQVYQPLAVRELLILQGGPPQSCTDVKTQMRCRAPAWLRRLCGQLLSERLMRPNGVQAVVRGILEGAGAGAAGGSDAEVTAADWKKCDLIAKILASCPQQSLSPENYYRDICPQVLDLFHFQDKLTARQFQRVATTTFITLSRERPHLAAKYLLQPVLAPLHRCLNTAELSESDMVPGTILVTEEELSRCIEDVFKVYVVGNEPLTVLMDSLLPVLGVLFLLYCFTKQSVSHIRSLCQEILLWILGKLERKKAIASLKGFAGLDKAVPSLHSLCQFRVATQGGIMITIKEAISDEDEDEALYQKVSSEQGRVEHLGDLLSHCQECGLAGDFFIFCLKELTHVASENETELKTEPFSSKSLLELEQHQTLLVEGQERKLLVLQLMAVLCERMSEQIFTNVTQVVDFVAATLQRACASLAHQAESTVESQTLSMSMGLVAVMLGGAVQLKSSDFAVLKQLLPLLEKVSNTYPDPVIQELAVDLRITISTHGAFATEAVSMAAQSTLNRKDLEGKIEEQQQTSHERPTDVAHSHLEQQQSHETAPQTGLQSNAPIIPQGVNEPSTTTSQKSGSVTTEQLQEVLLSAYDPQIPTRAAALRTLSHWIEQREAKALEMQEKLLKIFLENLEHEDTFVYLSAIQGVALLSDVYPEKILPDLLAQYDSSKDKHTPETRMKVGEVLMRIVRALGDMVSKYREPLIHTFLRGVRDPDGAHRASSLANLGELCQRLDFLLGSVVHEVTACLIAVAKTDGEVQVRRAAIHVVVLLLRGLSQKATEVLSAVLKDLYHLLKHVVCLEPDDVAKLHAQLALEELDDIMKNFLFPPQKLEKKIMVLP
UniProt Q9H0C8: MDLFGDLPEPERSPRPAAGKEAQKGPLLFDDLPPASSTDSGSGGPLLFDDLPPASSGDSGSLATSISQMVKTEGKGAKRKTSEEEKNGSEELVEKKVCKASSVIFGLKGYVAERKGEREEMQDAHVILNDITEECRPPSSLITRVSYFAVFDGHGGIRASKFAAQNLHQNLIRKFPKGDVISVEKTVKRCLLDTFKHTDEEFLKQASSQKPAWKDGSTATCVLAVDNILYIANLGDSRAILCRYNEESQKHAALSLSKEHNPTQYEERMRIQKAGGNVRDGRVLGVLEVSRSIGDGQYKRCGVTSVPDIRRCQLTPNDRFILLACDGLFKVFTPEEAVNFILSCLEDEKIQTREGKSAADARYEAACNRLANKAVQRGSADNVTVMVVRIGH
UniProt Q9H307: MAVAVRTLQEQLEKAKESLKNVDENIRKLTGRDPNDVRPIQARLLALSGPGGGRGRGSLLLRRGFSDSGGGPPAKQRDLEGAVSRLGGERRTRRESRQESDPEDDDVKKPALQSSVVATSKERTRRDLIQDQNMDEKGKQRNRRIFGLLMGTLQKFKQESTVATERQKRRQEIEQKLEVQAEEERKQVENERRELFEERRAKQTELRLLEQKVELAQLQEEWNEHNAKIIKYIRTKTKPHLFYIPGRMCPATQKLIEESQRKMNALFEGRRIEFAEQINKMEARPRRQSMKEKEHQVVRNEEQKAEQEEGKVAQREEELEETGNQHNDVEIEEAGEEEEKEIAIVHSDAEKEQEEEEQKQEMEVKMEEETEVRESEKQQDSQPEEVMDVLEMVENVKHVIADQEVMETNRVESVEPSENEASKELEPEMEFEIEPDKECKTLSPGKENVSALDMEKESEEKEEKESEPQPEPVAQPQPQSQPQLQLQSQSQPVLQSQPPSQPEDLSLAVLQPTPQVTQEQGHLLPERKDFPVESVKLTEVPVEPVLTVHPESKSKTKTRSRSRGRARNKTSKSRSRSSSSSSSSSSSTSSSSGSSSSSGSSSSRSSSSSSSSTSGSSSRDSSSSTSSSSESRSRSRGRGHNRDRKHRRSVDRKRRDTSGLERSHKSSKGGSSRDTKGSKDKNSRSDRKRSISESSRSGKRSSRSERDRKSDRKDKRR
UniProt Q9H8V3: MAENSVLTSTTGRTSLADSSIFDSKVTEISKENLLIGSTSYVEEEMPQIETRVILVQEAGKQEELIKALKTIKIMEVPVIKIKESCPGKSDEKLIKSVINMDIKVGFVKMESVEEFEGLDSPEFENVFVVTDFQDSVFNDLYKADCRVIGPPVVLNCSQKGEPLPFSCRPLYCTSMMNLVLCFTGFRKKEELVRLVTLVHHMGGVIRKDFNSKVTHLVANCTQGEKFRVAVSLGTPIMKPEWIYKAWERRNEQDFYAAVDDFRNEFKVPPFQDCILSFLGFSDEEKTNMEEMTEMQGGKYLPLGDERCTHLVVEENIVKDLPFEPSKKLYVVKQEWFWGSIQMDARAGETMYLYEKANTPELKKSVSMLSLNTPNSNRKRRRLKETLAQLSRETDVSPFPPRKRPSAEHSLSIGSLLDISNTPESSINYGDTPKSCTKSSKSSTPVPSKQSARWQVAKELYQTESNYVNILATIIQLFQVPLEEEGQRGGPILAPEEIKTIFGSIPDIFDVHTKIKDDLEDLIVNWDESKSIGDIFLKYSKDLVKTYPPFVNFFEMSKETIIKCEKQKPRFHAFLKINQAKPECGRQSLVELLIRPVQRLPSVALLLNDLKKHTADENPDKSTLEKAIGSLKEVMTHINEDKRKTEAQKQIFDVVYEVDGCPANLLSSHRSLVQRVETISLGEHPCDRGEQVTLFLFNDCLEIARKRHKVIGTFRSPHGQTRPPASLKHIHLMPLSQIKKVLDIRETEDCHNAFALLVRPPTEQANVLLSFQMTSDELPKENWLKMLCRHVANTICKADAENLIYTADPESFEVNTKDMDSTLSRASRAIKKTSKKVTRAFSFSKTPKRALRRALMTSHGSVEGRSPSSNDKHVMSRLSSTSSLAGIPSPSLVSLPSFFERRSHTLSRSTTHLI
UniProt Q9H9F9, whole entry: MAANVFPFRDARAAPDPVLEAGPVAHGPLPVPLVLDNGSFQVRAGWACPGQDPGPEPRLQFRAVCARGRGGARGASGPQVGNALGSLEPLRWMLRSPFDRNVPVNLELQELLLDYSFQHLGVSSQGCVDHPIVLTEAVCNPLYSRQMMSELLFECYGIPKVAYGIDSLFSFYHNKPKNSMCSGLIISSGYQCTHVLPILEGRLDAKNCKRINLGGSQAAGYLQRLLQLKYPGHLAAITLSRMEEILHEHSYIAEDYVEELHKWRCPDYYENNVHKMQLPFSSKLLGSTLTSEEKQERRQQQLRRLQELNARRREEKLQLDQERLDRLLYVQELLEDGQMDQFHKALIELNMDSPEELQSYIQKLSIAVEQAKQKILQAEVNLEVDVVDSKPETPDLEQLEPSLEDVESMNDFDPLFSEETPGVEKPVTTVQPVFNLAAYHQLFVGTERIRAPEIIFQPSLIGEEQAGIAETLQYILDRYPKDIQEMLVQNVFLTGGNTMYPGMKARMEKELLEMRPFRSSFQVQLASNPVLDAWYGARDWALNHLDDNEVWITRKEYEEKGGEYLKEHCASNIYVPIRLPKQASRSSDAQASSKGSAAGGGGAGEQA
UniProt Q9HAV7: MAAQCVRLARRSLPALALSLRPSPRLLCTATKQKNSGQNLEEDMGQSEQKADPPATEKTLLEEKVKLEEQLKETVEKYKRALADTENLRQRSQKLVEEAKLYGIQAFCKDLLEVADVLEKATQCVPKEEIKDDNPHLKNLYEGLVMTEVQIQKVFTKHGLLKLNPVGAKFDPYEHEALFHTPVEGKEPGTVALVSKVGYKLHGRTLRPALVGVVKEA
UniProt Q9HD42: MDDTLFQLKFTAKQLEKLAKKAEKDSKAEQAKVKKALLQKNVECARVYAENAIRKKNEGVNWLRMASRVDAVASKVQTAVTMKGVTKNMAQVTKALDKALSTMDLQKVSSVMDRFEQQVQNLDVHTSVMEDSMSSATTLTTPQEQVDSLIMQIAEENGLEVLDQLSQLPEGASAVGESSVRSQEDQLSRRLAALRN
UniProt Q9H1K1: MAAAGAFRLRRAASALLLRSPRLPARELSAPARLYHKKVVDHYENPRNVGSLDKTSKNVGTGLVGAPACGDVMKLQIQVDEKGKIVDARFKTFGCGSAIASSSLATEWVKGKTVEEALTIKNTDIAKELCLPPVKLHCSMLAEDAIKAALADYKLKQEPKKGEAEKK
UniProt Q9HB71, whole entry: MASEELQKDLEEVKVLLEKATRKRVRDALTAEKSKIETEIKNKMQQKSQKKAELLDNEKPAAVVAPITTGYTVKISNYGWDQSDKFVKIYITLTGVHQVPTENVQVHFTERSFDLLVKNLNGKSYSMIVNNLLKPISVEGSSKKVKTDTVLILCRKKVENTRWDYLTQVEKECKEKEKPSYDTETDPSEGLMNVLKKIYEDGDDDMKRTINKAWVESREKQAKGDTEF

Compound: Nc1ncnc2c1ncn2[C@@H]1O[C@H](COP(=O)(O)OP(=O)(O)OP(=O)(O)O)[C@@H](O)[C@H]1O [adenosine triphosphate]
Assay: NP40-soluble protein abundance relative to vehicle (solubility fold change) (ratio); higher = more soluble protein in presence of ATP
Summary of the method: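 Values are fold changes against the detergent-processed vehicle, based on vsn-normalised intensities. Jurkat crude lysate was treated at eight concentrations from 0.1 to 10 mM (10 min at room temperature, then 3 min at 37 °C), solubilised with 0.8% NP40 and benzonase, ultracentrifuged and analysed by TMT-labelled LC-MS/MS over three independent experiments.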

Target | NP40-soluble protein abundance (concentration: 1mM) | NP40-soluble protein abundance (concentration: 2mM) | NP40-soluble protein abundance (concentration: 4mM) | NP40-soluble protein abundance (concentration: 6mM) | NP40-soluble protein abundance (concentration: 8mM) | NP40-soluble protein abundance (concentration: 10mM)
ATG5 (UniProt Q9H1Y0) | 0.985 ± 0.069 | 0.991 ± 0.074 | 0.992 ± 0.073 | 0.95 ± 0.044 | 0.959 ± 0.08 | 0.952 ± 0.066
UniProt Q9H1I8 and related entries | 0.935 ± 0.19 | 0.996 ± 0.2 | 1.12 ± 0.25 | 1.16 ± 0.28 | 1.21 ± 0.4 | 1.32 ± 0.31
UniProt Q9H008 and related entries | 0.979 ± 0.019 | 0.9536 ± 0.0038 | 0.9154 ± 0.0088 | 0.927 ± 0.025 | 0.9355 ± 0.0063 | 0.944 ± 0.016
SHARPIN (UniProt Q9H0F6) | 0.987 ± 0.017 | 0.977 ± 0.047 | 0.943 ± 0.053 | 0.992 ± 0.07 | 0.972 ± 0.04 | 0.925 ± 0.036
UniProt Q9GZM8 and related entries | 0.863 ± 0.2 | 0.871 ± 0.11 | 0.886 ± 0.045 | 0.919 ± 0.17 | 0.9219 ± 0.005 | 0.849 ± 0.13
CBX8 (UniProt Q9HC52) | 1.09 ± 0.051 | 1.14 ± 0.048 | 1.26 ± 0.12 | 1.34 ± 0.11 | 1.43 ± 0.1 | 1.65 ± 0.13
RPAP3 (UniProt Q9H6T3) | 0.998 ± 0.032 | 1 ± 0.017 | 0.974 ± 0.027 | 1.06 ± 0.049 | 0.994 ± 0.025 | 1.002 ± 0.0046
DEF6 (UniProt Q9H4E7) | 0.961 ± 0.025 | 0.95 ± 0.011 | 0.95 ± 0.028 | 0.943 ± 0.013 | 0.938 ± 0.036 | 0.922 ± 0.026
SRA1 (UniProt Q9HD15) | 0.9965 ± 0.0092 | 0.955 ± 0.083 | 1.03 ± 0.028 | 0.983 ± 0.092 | 0.973 ± 0.042 | 0.901 ± 0.078
POFUT1 (UniProt Q9H488) | 1 ± 0.032 | 0.983 ± 0.029 | 0.983 ± 0.021 | 0.949 ± 0.045 | 0.915 ± 0.016 | 0.956 ± 0.014
UniProt Q9H425 and related entries | 0.993 ± 0.058 | 1.01 ± 0.055 | 0.995 ± 0.029 | 1.02 ± 0.02 | 0.966 ± 0.036 | 0.956 ± 0.059
UniProt Q9H7B2 | 1.11 ± 0.1 | 1.16 ± 0.028 | 1.14 ± 0.042 | 1.08 ± 0.12 | 1.03 ± 0.084 | 0.992 ± 0.038
SLC38A10 (UniProt Q9HBR0) | 0.987 ± 0.095 | 0.921 ± 0.056 | 0.955 ± 0.043 | 0.891 ± 0.049 | 0.813 ± 0.11 | 0.911 ± 0.065
JPH1 (UniProt Q9HDC5) | 1.17 ± 0.072 | 1.23 ± 0.13 | 1.28 ± 0.1 | 1.34 ± 0.12 | 1.31 ± 0.044 | 1.43 ± 0.094
UniProt Q9H2D6 and related entries | 1.03 ± 0.054 | 1.03 ± 0.07 | 1.027 ± 0.01 | 1.01 ± 0.052 | 1.02 ± 0.12 | 0.976 ± 0.096
UniProt Q9C0B7 | 1.11 ± 0.13 | 1.01 ± 0.11 | 1.1 ± 0.063 | 0.979 ± 0.15 | 0.952 ± 0.25 | 1.03 ± 0.058
ILKAP (UniProt Q9H0C8) | 0.98 ± 0.056 | 0.969 ± 0.025 | 0.956 ± 0.026 | 0.956 ± 0.037 | 0.966 ± 0.058 | 0.966 ± 0.041
UniProt Q9H867 and related entries | 0.943 ± 0.044 | 0.97 ± 0.22 | 1.154 ± 0.0016 | 0.997 ± 0.042 | 0.966 ± 0.074 | 1.04 ± 0.041
ZHX3 (UniProt Q9H4I2) | 1 ± 0.097 | 1.01 ± 0.062 | 1.05 ± 0.094 | 1.02 ± 0.039 | 0.978 ± 0.056 | 1.01 ± 0.051
UniProt Q9H6K5 and related entries | 0.986 ± 0.1 | 0.967 ± 0.098 | 0.977 ± 0.053 | 0.975 ± 0.096 | 0.908 ± 0.051 | 0.931 ± 0.069
TFB2M (UniProt Q9H5Q4) | 1.049 ± 0.0065 | 0.973 ± 0.023 | 0.975 ± 0.032 | 0.965 ± 0.037 | 1.02 ± 0.053 | 1.05 ± 0.073
ZWILCH (UniProt Q9H900) | 1.06 ± 0.16 | 1.07 ± 0.082 | 1.02 ± 0.15 | 0.994 ± 0.11 | 1.09 ± 0.1 | 1.04 ± 0.074
UniProt Q9H1B7 | 0.96 ± 0.044 | 0.967 ± 0.051 | 0.947 ± 0.018 | 0.947 ± 0.032 | 0.916 ± 0.013 | 0.939 ± 0.019
UniProt Q9H6D7 and related entries | 1.04 ± 0.13 | 1.01 ± 0.086 | 1.05 ± 0.11 | 1.01 ± 0.11 | 1.09 ± 0.058 | 0.965 ± 0.081
FN3KRP (UniProt Q9HA64) | 1 ± 0.028 | 1.01 ± 0.057 | 0.983 ± 0.054 | 0.98 ± 0.1 | 1.02 ± 0.066 | 0.991 ± 0.047
CUEDC2 (UniProt Q9H467) | 0.926 ± 0.11 | 0.926 ± 0.072 | 0.911 ± 0.061 | 0.92 ± 0.087 | 0.868 ± 0.042 | 0.851 ± 0.1

Shown as tab-separated lines: entries from further up.
Target	NP40-soluble protein abundance (concentration: 1mM)	NP40-soluble protein abundance (concentration: 2mM)	NP40-soluble protein abundance (concentration: 4mM)	NP40-soluble protein abundance (concentration: 6mM)	NP40-soluble protein abundance (concentration: 8mM)	NP40-soluble protein abundance (concentration: 10mM)
CBX8 (UniProt Q9HC52)	1.09 ± 0.051	1.14 ± 0.048	1.26 ± 0.12	1.34 ± 0.11	1.43 ± 0.1	1.65 ± 0.13
RPAP3 (UniProt Q9H6T3)	0.998 ± 0.032	1 ± 0.017	0.974 ± 0.027	1.06 ± 0.049	0.994 ± 0.025	1.002 ± 0.0046
ZWILCH (UniProt Q9H900)	1.06 ± 0.16	1.07 ± 0.082	1.02 ± 0.15	0.994 ± 0.11	1.09 ± 0.1	1.04 ± 0.074
FN3KRP (UniProt Q9HA64)	1 ± 0.028	1.01 ± 0.057	0.983 ± 0.054	0.98 ± 0.1	1.02 ± 0.066	0.991 ± 0.047

Next part

Target | NP40-soluble protein abundance (concentration: 1mM) | NP40-soluble protein abundance (concentration: 2mM) | NP40-soluble protein abundance (concentration: 4mM) | NP40-soluble protein abundance (concentration: 6mM) | NP40-soluble protein abundance (concentration: 8mM) | NP40-soluble protein abundance (concentration: 10mM)
UniProt Q9H6U6 and related entries | 0.975 ± 0.025 | 0.995 ± 0.065 | 1 ± 0.066 | 0.983 ± 0.063 | 0.973 ± 0.089 | 0.994 ± 0.061
UniProt Q9H446 and related entries | 0.973 ± 0.052 | 1.01 ± 0.062 | 0.946 ± 0.061 | 1.05 ± 0.08 | 0.973 ± 0.068 | 0.956 ± 0.052
PNN (UniProt Q9H307) | 1.1 ± 0.15 | 1.03 ± 0.23 | 0.951 ± 0.19 | 0.928 ± 0.25 | 0.753 ± 0.15 | 0.819 ± 0.15
WDR76 (UniProt Q9H967) | 1.2 ± 0.24 | 1.11 ± 0.16 | 1.19 ± 0.14 | 1.16 ± 0.14 | 1.25 ± 0.11 | 1.18 ± 0.13
TSPYL1 (UniProt Q9H0U9) | 0.965 ± 0.043 | 1.01 ± 0.018 | 0.931 ± 0.029 | 0.978 ± 0.043 | 1.03 ± 0.039 | 0.975 ± 0.075
UniProt Q9H936 and related entries | 0.95 ± 0.065 | 0.97 ± 0.031 | 0.958 ± 0.06 | 0.906 ± 0.042 | 0.942 ± 0.064 | 1.01 ± 0.085
NOL11 (UniProt Q9H8H0) | 1.03 ± 0.11 | 1.17 ± 0.069 | 1.11 ± 0.016 | 1.24 ± 0.048 | 1.29 ± 0.084 | 1.23 ± 0.21
RACGAP1 (UniProt Q9H0H5) | 1.1 ± 0.033 | 1.14 ± 0.047 | 1.14 ± 0.035 | 1.2 ± 0.041 | 1.17 ± 0.035 | 1.19 ± 0.036
UniProt Q9H8V3 and related entries | 1.15 ± 0.068 | 1.11 ± 0.036 | 1.23 ± 0.081 | 1.19 ± 0.035 | 1.16 ± 0.061 | 1.17 ± 0.03
UniProt Q9H3H5 and related entries | 1.08 ± 0.22 | 1.06 ± 0.13 | 0.987 ± 0.12 | 0.873 ± 0.12 | 1.04 ± 0.1 | 1.02 ± 0.072
SUDS3 (UniProt Q9H7L9) | 1.01 ± 0.024 | 1.01 ± 0.011 | 1.02 ± 0.03 | 0.983 ± 0.11 | 1.02 ± 0.062 | 1.06 ± 0.012
ACTR5 (UniProt Q9H9F9) | 1.08 ± 0.037 | 1.13 ± 0.019 | 1.17 ± 0.072 | 1.22 ± 0.12 | 1.18 ± 0.018 | 1.28 ± 0.027
GRPEL1 (UniProt Q9HAV7) | 0.935 ± 0.086 | 0.896 ± 0.047 | 0.928 ± 0.039 | 0.93 ± 0.045 | 0.896 ± 0.035 | 0.821 ± 0.067
UniProt Q9H7F0 and related entries | 1.07 ± 0.037 | 1.06 ± 0.091 | 1.13 ± 0.17 | 1.12 ± 0.052 | 1.02 ± 0.024 | 1.05 ± 0.09
TOLLIP (UniProt Q9H0E2) | 0.954 ± 0.018 | 0.968 ± 0.016 | 0.947 ± 0.015 | 0.979 ± 0.014 | 0.924 ± 0.055 | 0.935 ± 0.036
UniProt Q9H5V9 and related entries | 0.954 ± 0.017 | 0.974 ± 0.0078 | 0.96 ± 0.03 | 1.05 ± 0.013 | 1 ± 0.025 | 1.05 ± 0.013
UniProt Q9H668 | 0.914 ± 0.25 | 0.9 ± 0.11 | 0.964 ± 0.25 | 0.958 ± 0.15 | 0.951 ± 0.083 | 1.01 ± 0.17
UniProt Q9H813 and related entries | 1.05 ± 0.12 | 1.09 ± 0.061 | 1.08 ± 0.042 | 1 ± 0.055 | 1.04 ± 0.096 | 1.05 ± 0.038
PCIF1 (UniProt Q9H4Z3) | 1.01 ± 0.058 | 0.978 ± 0.021 | 0.978 ± 0.018 | 0.966 ± 0.018 | 0.963 ± 0.017 | 0.955 ± 0.053
CHMP1A (UniProt Q9HD42) | 1.13 ± 0.13 | 1.14 ± 0.066 | 1.12 ± 0.054 | 1.17 ± 0.088 | 1.12 ± 0.023 | 1.04 ± 0.11
WDR55 (UniProt Q9H6Y2) | 1.12 ± 0.1 | 1.13 ± 0.088 | 1.14 ± 0.064 | 1.14 ± 0.037 | 1.04 ± 0.066 | 1.12 ± 0.042
UniProt Q9H330 and related entries | 0.937 ± 0.026 | 0.947 ± 0.047 | 0.937 ± 0.034 | 0.968 ± 0.027 | 0.896 ± 0.024 | 0.941 ± 0.061
ISCU (UniProt Q9H1K1) | 0.933 ± 0.054 | 0.927 ± 0.029 | 0.917 ± 0.021 | 0.953 ± 0.027 | 0.912 ± 0.02 | 0.887 ± 0.021
UniProt Q9H334 and related entries | 1.01 ± 0.018 | 1.03 ± 0.075 | 1.08 ± 0.11 | 1.02 ± 0.081 | 1.02 ± 0.12 | 1.03 ± 0.14
CACYBP (UniProt Q9HB71) | 0.951 ± 0.027 | 0.9495 ± 0.0029 | 0.899 ± 0.02 | 0.979 ± 0.025 | 0.912 ± 0.035 | 0.91 ± 0.021
